Converted amounts (≈) assume the structure as drawn.
Tested on: Candida albicans
Assay: microbe, parasite or virus in culture
Conditions: ATCC 90028

With `C[C@@H]1[C@H](O)[C@@H](C)/C=C/C=C/C=C/C=C/C=C/C=C/C=C/[C@H](O[C@@H]2O[C@H](C)[C@@H](O)[C@H](N)[C@@H]2O)C[C@@H]2O[C@](O)(C[C@@H](O)C[C@@H](O)[C@H](O)CC[C@@H](O)C[C@@H](O)CC(=O)O[C@H]1C)C[C@H](O)[C@H]2C(=O)O` [AMPHOTERICIN B] the MIC was 0.63 µg/mL (≈ 0.682 µM).
